In the supplement of paper PMC4604168 (melanoma cell lines):
The list shows a part of the results. Repeats are few or missing, and single values can be far off.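 Cells were imaged in 1,536-well plates, and nuclei stained with an antibody against cleaved PARP were counted against all DNA-stained nuclei to give the apoptosis fraction. Screening doses were chosen to leave most cells alive, and resting and induced cleaved-PARP levels differ strongly between cell lines.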

How the values were obtained:
Assay in all cases: cleaved PARP positive nuclei fraction relative to DMSO control; melanoma cells; higher = more apoptosis
Settings in all cases: library dose: low library concentration; 72 h
[1] = test system: MZ2-MEL
[2] = test system: MeWo
[3] = test system: RPMI7951
[4] = test system: RVH-421
[5] = test system: SkMel28
[6] = test system: SkMel2
[7] = test system: SkMel30
[8] = test system: UACC62
[9] = test system: WM115
[10] = test system: WM1716
[11] = test system: WM1745
[12] = test system: WM3526
[13] = test system: WM3619
[14] = test system: WM451Lu

SMILES | cleaved PARP positive nuclei fraction [1] [%] | cleaved PARP positive nuclei fraction [2] [%] | cleaved PARP positive nuclei fraction [3] [%] | cleaved PARP positive nuclei fraction [4] [%] | cleaved PARP positive nuclei fraction [5] [%] | cleaved PARP positive nuclei fraction [6] [%] | cleaved PARP positive nuclei fraction [7] [%] | cleaved PARP positive nuclei fraction [8] [%] | cleaved PARP positive nuclei fraction [9] [%] | cleaved PARP positive nuclei fraction [10] [%] | cleaved PARP positive nuclei fraction [11] [%] | cleaved PARP positive nuclei fraction [12] [%] | cleaved PARP positive nuclei fraction [13] [%] | cleaved PARP positive nuclei fraction [14] [%]
Cc1cc(Nc2cc(N3CCN(C)CC3)nc(/C=C/c3ccccc3)n2)n[nH]1 + COCC[n+]1c2c(n(Cc3cnccn3)c1C)C(=O)c1ccccc1C2=O [YM155] (first compound 0.04 µM, partner dose 0.0004 µM) | 268 | 206 | 30.9 | 116 | 140 | 72.1 | 76.6 | 179 | 127 | 77 | 107 | 82.9 | 85.6 | 27.3
O=C(O)[C@@H]1[O][Sb](=[O])([O][Sb]2(=[O])[O][C@H]([C@H](O)CO)[C@H](O)[C@H](C(=O)O)[O]2)[O][C@H]([C@H](O)CO)[C@@H]1O (stereo not given in full) [stibogluconate] + OCc1c[nH]c2ccccc12 [Indole-3-carbinol] (first compound 2 µM, partner dose 0.8 µM) | 328 | 87.3 | 85 | 111 | 85.5 | 128 | 91.9 | 114 | 54.6 | 64.1 | 97.3 | 96.9 | 92.7 | 97.8
CS(=O)(=O)CCNCc1ccc(-c2ccc3ncnc(Nc4ccc(OCc5cccc(F)c5)c(Cl)c4)c3c2)o1 [lapatinib] + OCc1c[nH]c2ccccc12 [Indole-3-carbinol] (first compound 0.8 µM, partner dose 0.8 µM) | 92.6 | 109 | 95.2 | 141 | 56.2 | 57.8 | 95.9 | 98.5 | 136 | 78.4 | 93 | 89.4 | 215 | 50.1
CNC(=O)c1cc(Oc2ccc(NC(=O)Nc3ccc(Cl)c(C(F)(F)F)c3)cc2)ccn1 [sorafenib] + O=C(O)c1ccc2c(c1)nc(Nc1cccc(Cl)c1)c1ccncc12 [CX4945] (first compound 0.4 µM, partner dose 0.4 µM) | 53.7 | 79.2 | 92.6 | 162 | 117 | 56.8 | 102 | 134 | 138 | 70 | 166 | 88.5 | 81.9 | 87.3
Nc1ccn([C@@H]2O[C@H](CO)[C@@H](O)C2(F)F)c(=O)n1 [gemcitabine] + COCC[n+]1c2c(n(Cc3cnccn3)c1C)C(=O)c1ccccc1C2=O [YM155] (first compound 0.0004 µM, partner dose 0.0004 µM) | 211 | 57.2 | 21.6 | 51.5 | 23.8 | 152 | 69.2 | 46.9 | 93.1 | 93.1 | 109 | 25.5 | 186 | 68.3
Cc1cc(Nc2cc(N3CCN(C)CC3)nc(/C=C/c3ccccc3)n2)n[nH]1 + Cc1nc(Nc2ncc(C(=O)Nc3c(C)cccc3Cl)s2)cc(N2CCN(CCO)CC2)n1 [dasatanib] (first compound 0.04 µM, partner dose 0.004 µM) | 149 | 112 | 63.8 | 83.2 | 49.9 | 49.2 | 78.1 | 100 | 126 | 60.3 | 92.9 | 30.9 | 98.4 | 29.5
O=C(O)[C@@H]1[O][Sb](=[O])([O][Sb]2(=[O])[O][C@H]([C@H](O)CO)[C@H](O)[C@H](C(=O)O)[O]2)[O][C@H]([C@H](O)CO)[C@@H]1O (stereo not given in full) [stibogluconate] + COc1ccc(Cl)c(Nc2nc3ccccc3nc2NS(=O)(=O)c2cccc(NC(=O)C(C)(C)N)c2)c1 [XL147] (first compound 2 µM, partner dose 0.8 µM) | 130 | 159 | 64.4 | 153 | 146 | 163 | 14.3 | 54.7 | 121 | 196 | 99.7 | 53.9 | 82.2 | 48.9
CN1CCN(c2ccc3nc(-c4c(N)c5c(F)cccc5[nH]c4=O)[nH]c3c2)CC1 [Dovitinib] + CCCS(=O)(=O)Nc1ccc(F)c(C(=O)c2c[nH]c3ncc(Cl)cc23)c1F [PLX4720] (first compound 0.1 µM, partner dose 0.08 µM) | 162 | 56.9 | 116 | 102 | 48.1 | 79.7 | 143 | 132 | 109 | 6.33 | 126 | 207 | 83.5 | 236
O=C(O)[C@@H]1[O][Sb](=[O])([O][Sb]2(=[O])[O][C@H]([C@H](O)CO)[C@H](O)[C@H](C(=O)O)[O]2)[O][C@H]([C@H](O)CO)[C@@H]1O (stereo not given in full) [stibogluconate] + Nc1nc(F)nc2c1ncn2[C@@H]1O[C@H](CO)[C@@H](O)[C@@H]1O [fludarabine] (first compound 2 µM, partner dose 0.2 µM) | 208 | 448 | 241 | 85.4 | 40.6 | 382 | 1170 | 52.3 | 130 | 51.3 | 168 | 256 | 97 | 137
Cn1c(=O)n(-c2ccc(C(C)(C)C#N)cc2)c2c3cc(-c4cnc5ccccc5c4)ccc3ncc21 + CCCS(=O)(=O)Nc1ccc(F)c(C(=O)c2c[nH]c3ncc(Cl)cc23)c1F [PLX4720] (first compound 0.004 µM, partner dose 0.08 µM) | 42.6 | 53.3 | 60.8 | 63.7 | 80 | 32.7 | 69.1 | 151 | 101 | 12.7 | 78 | 118 | 114 | 175

2 records drawn at random from the list so far, as already listed:
SMILES | cleaved PARP positive nuclei fraction [1] [%] | cleaved PARP positive nuclei fraction [2] [%] | cleaved PARP positive nuclei fraction [3] [%] | cleaved PARP positive nuclei fraction [4] [%] | cleaved PARP positive nuclei fraction [5] [%] | cleaved PARP positive nuclei fraction [6] [%] | cleaved PARP positive nuclei fraction [7] [%] | cleaved PARP positive nuclei fraction [8] [%] | cleaved PARP positive nuclei fraction [9] [%] | cleaved PARP positive nuclei fraction [10] [%] | cleaved PARP positive nuclei fraction [11] [%] | cleaved PARP positive nuclei fraction [12] [%] | cleaved PARP positive nuclei fraction [13] [%] | cleaved PARP positive nuclei fraction [14] [%]
CS(=O)(=O)CCNCc1ccc(-c2ccc3ncnc(Nc4ccc(OCc5cccc(F)c5)c(Cl)c4)c3c2)o1 [lapatinib] + OCc1c[nH]c2ccccc12 [Indole-3-carbinol] (first compound 0.8 µM, partner dose 0.8 µM) | 92.6 | 109 | 95.2 | 141 | 56.2 | 57.8 | 95.9 | 98.5 | 136 | 78.4 | 93 | 89.4 | 215 | 50.1
Cc1cc(Nc2cc(N3CCN(C)CC3)nc(/C=C/c3ccccc3)n2)n[nH]1 + COCC[n+]1c2c(n(Cc3cnccn3)c1C)C(=O)c1ccccc1C2=O [YM155] (first compound 0.04 µM, partner dose 0.0004 µM) | 268 | 206 | 30.9 | 116 | 140 | 72.1 | 76.6 | 179 | 127 | 77 | 107 | 82.9 | 85.6 | 27.3
